Results taken from paper PMC4915132, “Structural insights of ZIP4 extracellular domain critical for optimal zinc transport” (Nature Communications, 2016).
These are yes or no findings as the source states them, for the method shown. For some assays here: In cells and extracts the contact can be indirect. Some entries that bind do so weakly or less than the wild type. For some assays here: Where a sequence is shown, tags or fusion partners need not be part of it. Blank lines part the entries; values can stand above or below the binder they belong to.

Key:
[1] = target: pZIP4-ECD construct truncated at the end of α11 (residues 36-233) (Pteropus alecto) (UniProt L5KLU7); test: SEC; purified protein on a size exclusion column; elution volume compared with standard proteins eluted on the same column; both purified
[2] = target: full-length human ZIP4, wild type, with C-terminal HA tag (human) (UniProt Q6P5W5); test: cross-linking; disulfide through an engineered cysteine; full-length hZIP4-HA transiently expressed in HEK293T cells; 4-20% gradient SDS-PAGE with or without 5% β-mercaptoethanol, western blot with anti-HA

binding [1]: no binding
B1: pZIP4-ECD construct truncated at the end of α11 (residues 36-233) (domain or fragment, UniProt L5KLU7 36-233)
chain: SGQGALDRVALGGLLNTLAARVHCTSGPCGKCLSVDDLLALGRPEEPGHLARLSAAAALYLSDPEGTCEDIRAGRWASRADHLLALLEGPKALAPGLSRLLQRIQAQTTGQPSAGEACVDPPQLLREAGVAGAPGSPGPVLATLLEHVGRGSCFHTLPTPQYFVDFVFQQSHGNTPNISVAELAALMQRLGVGGVTET

binding [2]: binds
B2: full-length human ZIP4, wild type, with C-terminal HA tag (protein, UniProt Q6P5W5-1 23-647)
chain: SPPAGLLSLLTSGQGALDQEALGGLLNTLADRVHCANGPCGKCLSVEDALGLGEPEGSGLPPGPVLEARYVARLSAAAVLYLSNPEGTCEDARAGLWASHADHLLALLESPKALTPGLSWLLQRMQARAAGQTPKMACVDIPQLLEEAVGAGAPGSAGGVLAALLDHVRSGSCFHALPSPQYFVDFVFQQHSSEVPMTLAELSALMQRLGVGREAHSDHSHRHRGASSRDPVPLISSSNSSSVWDTVCLSARDVMAAYGLSEQAGVTPEAWAQLSPALLQQQLSGACTSQSRPPVQDQLSQSERYLYGSLATLLICLCAVFGLLLLTCTGCRGVTHYILQTFLSLAVGAVTGDAVLHLTPKVLGLHTHSEEGLSPQPTWRLLAMLAGLYAFFLFENLFNLLLPRDPEDLEDGPCGHSSHSHGGHSHGVSLQLAPSELRQPKPPHEGSRADLVAEESPELLNPEPRRLSPELRLLPYMITLGDAVHNFADGLAVGAAFASSWKTGLATSLAVFCHELPHELGDFAALLHAGLSVRQALLLNLASALTAFAGLYVALAVGVSEESEAWILAVATGLFLYVALCDMLPAMLKVRDPRPWLLFLLHNVGLLGGWTVLLLLSLYEDDITF
